This experiment has as its target RhoA (human (endogenous in MDA-MB-231-Luc)) (UniProt P61586). The experiment can be described thus: proximity ligation; in situ, Duolink 'In-cell Co-IP' kit with anti-SCN4B and anti-RhoA primary antibodies, in shCTL MDA-MB-231-Luc cells; shSCN4B (knock-down) cells as control.

By UniProt entry, the sequences of proteins in these tests, tags left out.
UniProt P61586: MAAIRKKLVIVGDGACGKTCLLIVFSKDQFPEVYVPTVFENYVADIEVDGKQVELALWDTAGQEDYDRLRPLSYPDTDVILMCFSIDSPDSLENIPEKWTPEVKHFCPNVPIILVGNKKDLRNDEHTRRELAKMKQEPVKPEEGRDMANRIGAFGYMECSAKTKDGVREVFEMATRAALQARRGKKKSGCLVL

Results are given in words; binding and its absence hold for the method and conditions named. Binding seen in cells or lysates may run through a third protein. Some entries that bind do so weakly or less than the wild type.

B1: SCN4B/β4 protein (protein, UniProt Q8IWT1 31-228)
chain: LEVSVGKATDIYAVNGTEILLPCTFSSCFGFEDLHFRWTYNSSDAFKILIEGTVKNEKSDPKVTLKDDDRITLVGSTKEKMNNISIVLRDLEFSDTGKYTCHVKNPKENNLQHHATIFLQVVDRLEEVDNTVTLIILAVVGGVIGLLILILLIKKLIIFILKKTREKKKECLVSSSGNDNTENGLPGSKAEEKPPSKV
Take B1: the binding result was “binds”.

The values are drawn from article PMC5150224.
